At least one structure is not confirmed: it was looked up by name or label, or the drawing left a doubt.
Columns and labels:
[1] = tested on: E11 Sox10-rtTA neurospheres; assay: Differentiation assay of neurospheres in culture; assay type: cell-based, mice
[2] = tested on: neurospheres prepared from boundary cap neural crest stem cells of E11 Sox10-rtTA embryos; assay: Quantitative RT-PCR of transcription factors in transfected neurospheres; assay type: cell-based, mice; conditions: neurospheres transfected with Aml1B/Runx1 long isoform; DOX 24 h after transfection, analyzed 24 h later
[3] = tested on: neurospheres prepared from boundary cap neural crest stem cells of E11 Sox10-rtTA embryos; assay: DOX mediated induction of eYFP reporter in bNCSC neurospheres in vitro; assay type: cell-based, mice; conditions: DOX 24 h
[4] = tested on: transplanted neurospheres; assay: Transplantation of neurospheres to the dorsal root ganglion cavity of adult mice with DOX in drinking water; assay type: in vivo, mice of the C3H strain

Q: `C[C@H]1c2cccc(O)c2C(=O)C2=C(O)[C@]3(O)C(=O)C(C(N)=O)=C(O)[C@@H](N(C)C)[C@@H]3[C@@H](O)[C@@H]21` [DOX, doxycycline] was tested. Which “Differentiation to cells with characteristic morphology of DRG neurons” value ([1]; E11 Sox10-rtTA neurospheres transfected with Aml1B/Runx1 (long isoform)) did it give?
A: extensive differentiation

Q: And the “Differentiation to cells with characteristic morphology of DRG neurons” value ([1]; neurospheres from Sox10-rtTA+TRE-Aml1A/Runx1 (short isoform) mice)?
A: no such neurons were found

Q: What about the “Expression of neurogenin (Ngn) 1 by quantitative RT-PCR” value [2] of the same compound?
A: marked up-regulation

Q: And the “eYFP expression (Aml1B/Runx1 long isoform reporter gene)” value ([3]; Sox10-rtTA neurospheres transfected with eYFP-TRE-Aml1B/Runx1 long isoform)?
A: induced only in DOX treated cultures

Q: And the “eYFP expression (Aml1A/Runx1 reporter gene)” value ([3]; neurospheres from Sox10-rtTA x eYFP-TRE-Aml1A/Runx1 embryos)?
A: induced only in DOX treated cultures

Q: What about the “Binding of Griffonia Simplicifolia Agglutinin isolectin B4 in transplanted cells” value ([4]; Sox10-rtTA neurospheres transfected with Aml1B/Runx1, DOX for two weeks after transplantation) of the same compound?
A: A fraction of Hoechst labelled cells were also labelled with B4

Q: What about the “eYFP in transplanted neurospheres” value ([4]; Sox10-rtTA neurospheres transfected with Aml1B/Runx1, three weeks after transplantation, DOX in drinking water) of the same compound?
A: up-regulation of eYFP

Q: And the “Binding of Griffonia Simplicifolia Agglutinin isolectin B4 in transplanted cells” value ([4]; sox10rtTA and Rosa26-rtTA neurospheres transfected with Aml1B/Runx1, DOX for 3 weeks)?
A: strong binding

From patent US20120107284A1, “Stem cells for transplantation and methods for production thereof” (priority 2006, published 2012)
